The list shows only some results of the screen, not a fair sample: it is rich in T/C values a quarter to a half above the control, in often repeated tests (any T/C) and in doses without a T/C. Other doses and runs of a compound stand elsewhere. T/C gives the treated animals as a percentage of the vehicle group. Schedules are NCI's codes, read here as Q, the interval in days (D) or hours (H), X, the number of doses. Some entries hold several experiments; the results are listed from low to high. Some T/C values are followed by the survivors on the day toxicity was checked, most often the fifth; without a count, all were alive then. Some doses have a count of surviving animals in place of a T/C: the source holds a T/C of zero for them, seemingly a mark for toxic or unscored doses. Counts of survivors are from the toxicity check (mostly the fifth day) where no day follows; animals may have died later. Some schedules carry Z or #; the key to these is not given.
Tested on: BDF1 mice, Adenocarcinoma 755 s.c., tumor weight T/C
Assay: NCI In Vivo Anticancer Drug Screen. Data for tumor model Adenocarcinoma 755 (subcutaneous) in B6D2F1 (BDF1) mice
Conditions: T/C endpoint: mean tumor weight, higher T/C = larger tumour; for T/C: evaluated on day 12
In short: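 Tumor-bearing mice receive test compound while controls get vehicle alone. Antitumor effect is scored from survival or tumor dimensions as a T/C quotient.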

[1] = dose: 25.0 mg/kg/injection, schedule: Q01DX011 (ip), vehicle: methylcellulose (MC)
[2] = dose: 60.0 mg/kg/injection, schedule: Q01DX011 (ip), vehicle: carboxymethylcellulose (CMC)
[3] = dose: 30.0 mg/kg/injection, schedule: Q01DX011 (ip), vehicle: carboxymethylcellulose (CMC)
[4] = dose: 120.0 mg/kg/injection, schedule: Q01DX011 (ip), vehicle: carboxymethylcellulose (CMC)
[5] = dose: 240.0 mg/kg/injection, schedule: Q01DX011 (ip), vehicle: carboxymethylcellulose (CMC)
[6] = dose: 25.0 mg/kg/injection, schedule: Q01DX011 (ip), vehicle: other

In the case of `c1ccc2c3c(ccc2c1)Sc1ccc2ccccc2c1N3`, the survivor count (dose: 220.0 mg/kg/injection, schedule: Q01DX011 (ip), vehicle: methylcellulose (MC)) is reported as 6 of 10 and the survivor count (dose: 880.0 mg/kg/injection, schedule: Q01DX011 (ip), vehicle: other) is reported as 1 of 10.

`Cc1nc(C(N)=O)nc2ccccc12` was tested, and the survivor count (dose: 62.5 mg/kg/injection, schedule: Q01DX011 (ip), vehicle: methylcellulose (MC)) was 3 of 10, the survivor count (dose: 125.0 mg/kg/injection, schedule: Q01DX011 (ip), vehicle: methylcellulose (MC)) was 6 of 10 and the survivor count (dose: 250.0 mg/kg/injection, schedule: Q01DX011 (ip), vehicle: methylcellulose (MC)) was 3 of 10.

With `COC(C(O)C(O)C(O)C(O)CO)n1cnc2cncnc21` (stereo not drawn) the T/C (dose: 170.0 mg/kg/injection, schedule: Q01DX011 (ip), vehicle: carboxymethylcellulose (CMC)) was 147 % of control.

For `S=c1nc[nH]c2c1ncn2C1CCCS1` (stereo not drawn), the T/C [1] was 148 % of control.

In the case of `Cc1nc(Cl)c(C#N)c(C(F)(F)F)c1[N+](=O)[O-]`, the survivor count [2] is reported as 0 of 10.

`O=C(Nc1ccc(C2=NCCN2)cc1)c1cccc(C(=O)Nc2ccc(C3=NCCN3)cc2)c1` was tested, and the survivor count (dose: 37.5 mg/kg/injection, schedule: Q01DX011 (ip), vehicle: carboxymethylcellulose (CMC)) was 5 of 10, the survivor count (dose: 75.0 mg/kg/injection, schedule: Q01DX011 (ip), vehicle: carboxymethylcellulose (CMC)) was 0 of 10 and the survivor count (dose: 150.0 mg/kg/injection, schedule: Q01DX011 (ip), vehicle: carboxymethylcellulose (CMC)) was 0 of 10.

`Ic1ncnc2c1ncn2C1CCCS1` (stereo not drawn) was tested, and the T/C [1] was 132 % of control.

`Nc1c(Br)cc2c(c1Br)Cc1cc([N+](=O)[O-])ccc1-2` was tested, and the T/C (dose: 12.0 mg/kg/injection, schedule: Q01DX011 (ip), vehicle: other) was 126 % of control, the survivor count (dose: 225.0 mg/kg/injection, schedule: Q01DX011 (ip), vehicle: saline) was 4 of 10 and the survivor count (dose: 400.0 mg/kg/injection, schedule: Q01DX011 (ip), vehicle: carboxymethylcellulose (CMC)) was 3 of 10. The survivor count (dose: 450.0 mg/kg/injection, schedule: Q01DX011 (ip), vehicle: saline) was 1 of 10 and the survivor count (dose: 900.0 mg/kg/injection, schedule: Q01DX011 (ip), vehicle: saline) was 0 of 10.

For `CC(CNC(=O)CCBr)CNC(=O)CCBr`, the survivor count (dose: 225.0 mg/kg/injection, schedule: Q01DX011 (ip), vehicle: carboxymethylcellulose (CMC)) was 6 of 10.

With `N#CCSc1ncnc2nc[nH]c12` the survivor count (dose: 4.0 mg/kg/injection, schedule: Q01DX011 (iv), vehicle: carboxymethylcellulose (CMC)) was 3 of 10, the survivor count (dose: 8.0 mg/kg/injection, schedule: Q#A X022 (ip), vehicle: carboxymethylcellulose (CMC)) was 5 of 10 and the survivor count (dose: 16.0 mg/kg/injection, schedule: Q#A X022 (ip), vehicle: carboxymethylcellulose (CMC)) was 5 of 10. For the same compound, the survivor count (dose: 32.0 mg/kg/injection, schedule: Q#A X022 (ip), vehicle: carboxymethylcellulose (CMC)) was 1 of 10, the survivor count (dose: 64.0 mg/kg/injection, schedule: Q#A X022 (ip), vehicle: carboxymethylcellulose (CMC)) was 0 of 10 and the survivor count (dose: 128.0 mg/kg/injection, schedule: Q01DX011 (ip), vehicle: carboxymethylcellulose (CMC)) was 1 of 10. The survivor count (dose: 200.0 mg/kg/injection, schedule: Q03DX004 (ip), vehicle: carboxymethylcellulose (CMC)) was 4 of 10, the survivor count (dose: 256.0 mg/kg/injection, schedule: Q01DX011 (ip), vehicle: carboxymethylcellulose (CMC)) was 0 of 10 and the survivor count (dose: 400.0 mg/kg/injection, schedule: Q01DX001 (ip), vehicle: carboxymethylcellulose (CMC)) was 0 of 10. The survivor count (dose: 400.0 mg/kg/injection, schedule: Q01DX011 (oral), vehicle: carboxymethylcellulose (CMC)) was 0 of 10, the survivor count (dose: 400.0 mg/kg/injection, schedule: Q03DX004 (ip), vehicle: carboxymethylcellulose (CMC)) was 0 of 10 and the survivor count (dose: 400.0 mg/kg/injection, schedule: Q07DX002 (ip), vehicle: carboxymethylcellulose (CMC)) was 0 of 10. For the same compound, the survivor count (dose: 800.0 mg/kg/injection, schedule: Q01DX001 (ip), vehicle: carboxymethylcellulose (CMC)) was 0 of 10, the survivor count (dose: 800.0 mg/kg/injection, schedule: Q01DX011 (oral), vehicle: carboxymethylcellulose (CMC)) was 0 of 10 and the survivor count (dose: 800.0 mg/kg/injection, schedule: Q07DX002 (ip), vehicle: carboxymethylcellulose (CMC)) was 0 of 10.

In the case of `Nc1ncnc2c1ncn2C1CCCC(CO)O1` (stereo not drawn), the T/C (dose: 25.0 mg/kg/injection, schedule: Q01DX011 (ip), vehicle: saline) is reported as 126 % of control.

For `CNc1nc(SCc2ccccc2)ncc1C`, the survivor count (dose: 15.0 mg/kg/injection, schedule: Q01DX011 (ip), vehicle: methylcellulose (MC)) was 6 of 10 and the survivor count (dose: 62.0 mg/kg/injection, schedule: Q01DX011 (ip), vehicle: methylcellulose (MC)) was 6 of 10.

`CN(C)c1ccc(/C=C/c2ccnc3ccccc23)cc1` was tested, and the survivor count (dose: 32.0 mg/kg/injection, schedule: Q01DX011 (ip), vehicle: water) was 2 of 10, the survivor count (dose: 62.5 mg/kg/injection, schedule: Q01DX011 (ip), vehicle: water) was 0 of 10 and the survivor count (dose: 125.0 mg/kg/injection, schedule: Q01DX011 (ip), vehicle: water) was 0 of 10. For the same compound, the survivor count (dose: 250.0 mg/kg/injection, schedule: Q01DX011 (ip), vehicle: water) was 0 of 10 and the survivor count (dose: 500.0 mg/kg/injection, schedule: Q01DX011 (ip), vehicle: water) was 0 of 10.

`CSc1nc(Cl)cc(NC(=O)CCl)n1` was tested, and the T/C [3] was 140 % of control [8 of 10 alive], the survivor count [4] was 0 of 10 and the survivor count [5] was 0 of 10.

For `Nc1nc(=S)c2ncn(C3OC(COC(=O)c4ccc(Cl)cc4)C(OC(=O)c4ccc(Cl)cc4)C3OC(=O)c3ccc(Cl)cc3)c2[nH]1` (stereo not drawn), the T/C (dose: 25.0 mg/kg/injection, schedule: Q01DX011 (ip), vehicle: carboxymethylcellulose (CMC)) was 1, 2, 7, 17 % of control, the survivor count (dose: 100.0 mg/kg/injection, schedule: Q01DX011 (ip), vehicle: carboxymethylcellulose (CMC)) was 0 of 12 and 5 of 10 and the survivor count (dose: 200.0 mg/kg/injection, schedule: Q01DX011 (ip), vehicle: carboxymethylcellulose (CMC)) was 0 of 10 and 0 of 12.

For `Nc1nc(=S)c2ncn(C3CCCO3)c2[nH]1` (stereo not drawn), the survivor count [3] was 0 of 10, the survivor count [2] was 0 of 10 and the survivor count [4] was 0 of 10. The survivor count [5] was 0 of 10.

In the case of `O=S(=O)(Nc1ccccc1)c1ccc(C2CC3(Cl)C(Cl)=C(Cl)C2(Cl)C3(Cl)Cl)cc1` (stereo not drawn), the survivor count (dose: 225.0 mg/kg/injection, schedule: Q01DX011 (ip), vehicle: methylcellulose (MC)) is reported as 5 of 12.

In the case of `NOCC(=O)O`, the survivor count (dose: 18.75 mg/kg/injection, schedule: Q01DX011 (ip), vehicle: water) is reported as 6 of 12, the survivor count [6] is reported as 6 of 10 and the survivor count (dose: 25.0 mg/kg/injection, schedule: Q01DX011 (ip), vehicle: water) is reported as 3 of 12. For the same compound, the survivor count (dose: 37.5 mg/kg/injection, schedule: Q01DX011 (ip), vehicle: other) was 2 of 10, the survivor count (dose: 37.5 mg/kg/injection, schedule: Q01DX011 (ip), vehicle: water) was 0 of 12 and the survivor count (dose: 50.0 mg/kg/injection, schedule: Q01DX011 (ip), vehicle: water) was 2 of 12.

For `O=C1NC(=O)c2cc([N+](=O)[O-])cc3cccc1c23`, the survivor count (dose: 85.0 mg/kg/injection, schedule: Q01DX011 (ip), vehicle: methylcellulose (MC)) was 4 of 10 and the survivor count (dose: 680.0 mg/kg/injection, schedule: Q01DX011 (ip), vehicle: methylcellulose (MC)) was 1 of 10.

For `CS(=O)(=O)OCCC(=O)NCCCNC(=O)CCOS(C)(=O)=O`, the survivor count (dose: 28.0 mg/kg/injection, schedule: Q01DX011 (ip), vehicle: methylcellulose (MC)) was 2 of 10 and the survivor count (dose: 113.0 mg/kg/injection, schedule: Q01DX011 (ip), vehicle: methylcellulose (MC)) was 6 of 10.

For `C=CC1OCCN1CC` (stereo not drawn), the T/C [6] was 129 % of control [9 of 10 alive].

Source: PubChem BioAssay AID180 (DTP/NCI, 2004)
